Measurements published in article PMC10002482, “BMPER Improves Vascular Remodeling and the Contractile Vascular SMC Phenotype” (International Journal of Molecular Sciences, 2023).
Results are given in words; binding and its absence hold for the method and conditions named. For some assays here: In cells and extracts the contact can be indirect. Some results given as binding are weak or reduced against the parent protein; the word gives no strength. For some assays here: Sequences can lack the tags named with a protein. Values belong to the molecule of their own block, whether it stands above or below them.

Amino acid sequences for entries named in this document (tags omitted). A change or cut given only in a name is not applied to a line headed by its entry. Residues count along the entry.
UniProt Q8N8U9: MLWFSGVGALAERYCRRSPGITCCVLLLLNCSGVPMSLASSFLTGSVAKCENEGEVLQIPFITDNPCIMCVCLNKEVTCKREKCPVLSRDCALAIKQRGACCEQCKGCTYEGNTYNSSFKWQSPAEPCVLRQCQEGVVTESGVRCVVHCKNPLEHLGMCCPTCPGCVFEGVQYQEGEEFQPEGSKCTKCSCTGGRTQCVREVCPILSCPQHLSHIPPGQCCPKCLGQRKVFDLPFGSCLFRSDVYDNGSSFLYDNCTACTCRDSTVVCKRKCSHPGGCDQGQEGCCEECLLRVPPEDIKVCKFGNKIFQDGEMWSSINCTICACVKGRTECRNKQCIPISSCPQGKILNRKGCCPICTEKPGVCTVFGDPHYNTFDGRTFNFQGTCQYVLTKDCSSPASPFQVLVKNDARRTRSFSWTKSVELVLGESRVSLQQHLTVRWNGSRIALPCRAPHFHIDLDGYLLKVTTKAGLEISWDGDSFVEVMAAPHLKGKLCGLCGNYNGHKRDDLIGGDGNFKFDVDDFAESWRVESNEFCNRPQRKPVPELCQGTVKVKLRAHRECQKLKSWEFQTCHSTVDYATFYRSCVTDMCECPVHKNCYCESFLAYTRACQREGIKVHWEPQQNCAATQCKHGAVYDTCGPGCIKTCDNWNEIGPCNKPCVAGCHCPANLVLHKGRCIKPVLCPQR
UniProt Q8CJ69, residues 40-685: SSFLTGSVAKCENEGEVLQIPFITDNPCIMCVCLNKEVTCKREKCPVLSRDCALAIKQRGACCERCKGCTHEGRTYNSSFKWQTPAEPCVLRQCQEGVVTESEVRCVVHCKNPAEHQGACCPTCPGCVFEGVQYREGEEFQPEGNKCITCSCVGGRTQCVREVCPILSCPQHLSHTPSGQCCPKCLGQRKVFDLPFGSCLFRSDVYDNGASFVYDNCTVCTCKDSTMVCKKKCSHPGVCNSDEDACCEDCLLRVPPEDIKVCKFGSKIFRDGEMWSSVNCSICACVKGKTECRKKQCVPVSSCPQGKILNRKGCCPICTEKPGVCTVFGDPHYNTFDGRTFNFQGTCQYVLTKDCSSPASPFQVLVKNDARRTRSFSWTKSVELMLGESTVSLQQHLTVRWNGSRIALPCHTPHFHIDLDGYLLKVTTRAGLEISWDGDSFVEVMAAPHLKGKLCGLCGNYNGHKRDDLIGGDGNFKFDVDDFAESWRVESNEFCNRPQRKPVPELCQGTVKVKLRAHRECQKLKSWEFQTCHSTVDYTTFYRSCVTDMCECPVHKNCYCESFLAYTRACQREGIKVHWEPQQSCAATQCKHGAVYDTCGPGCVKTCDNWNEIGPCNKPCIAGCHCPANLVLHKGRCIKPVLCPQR

Assays:
[1] = biological target: T1, IGFBP4, endogenous in human vSMCs (human (endogenous in primary vSMCs)) (UniProt P22692); experiment: proximity ligation; Duolink in situ PLA on acetone-fixed human vSMCs with BMPER and IGFBP4 antibodies; cells in 0.4% FBS/EBM or treated with IGF1 (10 ng/mL) for 20 min; control IgGs
T1 sequence: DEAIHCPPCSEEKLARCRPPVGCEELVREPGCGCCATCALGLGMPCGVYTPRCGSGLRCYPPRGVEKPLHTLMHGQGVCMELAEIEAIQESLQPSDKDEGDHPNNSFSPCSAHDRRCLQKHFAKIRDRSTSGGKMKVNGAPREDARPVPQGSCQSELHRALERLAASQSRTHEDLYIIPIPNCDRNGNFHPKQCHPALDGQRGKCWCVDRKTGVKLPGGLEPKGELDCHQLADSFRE

[2] = biological target: T2, IGFBP4, yeast two-hybrid fusion (UniProt P22692); experiment: two-hybrid; yeast two-hybrid screening "performed in the past"; no details given
T2 sequence: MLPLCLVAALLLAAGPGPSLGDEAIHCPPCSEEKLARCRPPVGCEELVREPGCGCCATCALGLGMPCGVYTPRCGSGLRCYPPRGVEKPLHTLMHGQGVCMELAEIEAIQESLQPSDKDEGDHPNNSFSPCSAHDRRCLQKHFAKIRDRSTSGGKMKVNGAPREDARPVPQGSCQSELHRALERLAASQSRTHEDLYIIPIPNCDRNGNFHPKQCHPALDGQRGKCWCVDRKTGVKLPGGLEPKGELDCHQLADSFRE

[3] = biological target: T3, Igfbp4, endogenous in mouse carotid artery (mouse (endogenous in carotid artery)) (UniProt P47879); experiment: proximity ligation; Duolink in situ PLA on acetone-fixed mouse carotid tissue sections (RCCA injured and LCCA control, 14 days after carotid ligation)
T3 sequence: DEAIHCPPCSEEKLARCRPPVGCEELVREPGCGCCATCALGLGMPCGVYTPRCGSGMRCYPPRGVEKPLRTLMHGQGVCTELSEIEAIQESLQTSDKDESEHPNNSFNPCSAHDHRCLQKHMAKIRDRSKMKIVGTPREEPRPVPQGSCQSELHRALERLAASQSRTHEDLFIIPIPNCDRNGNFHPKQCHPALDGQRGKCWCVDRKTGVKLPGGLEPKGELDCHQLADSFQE

[4] = biological target: T4, BMP-4 (bone morphogenetic protein 4) (UniProt P12644); experiment: SPR; competition: BMPER at constant 0.75 nM preincubated for 30 min with 0-6 nM IGFBP-4, injected over immobilised BMP-4 (430 RU, CM5) in HBS-EP; both purified
T4 sequence: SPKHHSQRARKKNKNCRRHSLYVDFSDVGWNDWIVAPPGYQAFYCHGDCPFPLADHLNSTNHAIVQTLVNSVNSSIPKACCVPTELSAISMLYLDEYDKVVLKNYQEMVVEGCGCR

[5] = biological target: T4, BMP-4 (bone morphogenetic protein 4); experiment: SPR; BIAcore 2000; BMP-4 immobilised at 430 RU on CM5 by amine coupling; 0-320 nM BMPER or IGFBP-4 injected in HBS-EP; 1:1 model with mass transfer; apparent KD = kd/ka; both purified

Molecule: BMPER, yeast two-hybrid fusion (from UniProt Q8N8U9 1-685)
binding [2]: binds

Molecule: Bmper, endogenous in mouse carotid artery (from UniProt Q8CJ69 40-685)
binding [3]: binds

Molecule: recombinant BMPER (BMP endothelial cell precursor-derived regulator) (from UniProt Q8N8U9 40-685)
binding [4]: binds

More lines, now with the values ahead:

binding [1]: binds
Molecule: BMPER, endogenous in human vSMCs (from UniProt Q8N8U9 40-685)

binding [5]: no binding (tested: 0–320 nM)
B1: recombinant IGFBP-4 (insulin-like growth factor-binding protein 4) (natural protein, UniProt P22692 22-258, looked up)
chain: DEAIHCPPCSEEKLARCRPPVGCEELVREPGCGCCATCALGLGMPCGVYTPRCGSGLRCYPPRGVEKPLHTLMHGQGVCMELAEIEAIQESLQPSDKDEGDHPNNSFSPCSAHDRRCLQKHFAKIRDRSTSGGKMKVNGAPREDARPVPQGSCQSELHRALERLAASQSRTHEDLYIIPIPNCDRNGNFHPKQCHPALDGQRGKCWCVDRKTGVKLPGGLEPKGELDCHQLADSFRE
notes: IGFBP4, recombinant protein immobilised or injected in SPR; whether this holds for the SPR proteins is surmised; source: recombinant
